These are yes or no findings as the source states them, for the method shown. Binding seen in cells or lysates may run through a third protein. A result given as binding can be weak or reduced; the word gives no strength. Sequences can lack the tags named with a protein.
Target: Tet3 (endogenous, murine brain) (mouse (endogenous in murine brain)) (UniProt Q8BG87)
Test: co-IP; Tet3-endogenous coIP: 500 µg of nuclear brain extract, 2 µg of Tet3 antibody, Dynabeads Protein G, 4 °C; western blot; anti-goat IgG as negative control

The chains behind the UniProt entries cited, without tags or fusion partners. Where a name states a change or a piece, a line headed by the entry shows the natural chain unless it says otherwise.
UniProt Q8BG87: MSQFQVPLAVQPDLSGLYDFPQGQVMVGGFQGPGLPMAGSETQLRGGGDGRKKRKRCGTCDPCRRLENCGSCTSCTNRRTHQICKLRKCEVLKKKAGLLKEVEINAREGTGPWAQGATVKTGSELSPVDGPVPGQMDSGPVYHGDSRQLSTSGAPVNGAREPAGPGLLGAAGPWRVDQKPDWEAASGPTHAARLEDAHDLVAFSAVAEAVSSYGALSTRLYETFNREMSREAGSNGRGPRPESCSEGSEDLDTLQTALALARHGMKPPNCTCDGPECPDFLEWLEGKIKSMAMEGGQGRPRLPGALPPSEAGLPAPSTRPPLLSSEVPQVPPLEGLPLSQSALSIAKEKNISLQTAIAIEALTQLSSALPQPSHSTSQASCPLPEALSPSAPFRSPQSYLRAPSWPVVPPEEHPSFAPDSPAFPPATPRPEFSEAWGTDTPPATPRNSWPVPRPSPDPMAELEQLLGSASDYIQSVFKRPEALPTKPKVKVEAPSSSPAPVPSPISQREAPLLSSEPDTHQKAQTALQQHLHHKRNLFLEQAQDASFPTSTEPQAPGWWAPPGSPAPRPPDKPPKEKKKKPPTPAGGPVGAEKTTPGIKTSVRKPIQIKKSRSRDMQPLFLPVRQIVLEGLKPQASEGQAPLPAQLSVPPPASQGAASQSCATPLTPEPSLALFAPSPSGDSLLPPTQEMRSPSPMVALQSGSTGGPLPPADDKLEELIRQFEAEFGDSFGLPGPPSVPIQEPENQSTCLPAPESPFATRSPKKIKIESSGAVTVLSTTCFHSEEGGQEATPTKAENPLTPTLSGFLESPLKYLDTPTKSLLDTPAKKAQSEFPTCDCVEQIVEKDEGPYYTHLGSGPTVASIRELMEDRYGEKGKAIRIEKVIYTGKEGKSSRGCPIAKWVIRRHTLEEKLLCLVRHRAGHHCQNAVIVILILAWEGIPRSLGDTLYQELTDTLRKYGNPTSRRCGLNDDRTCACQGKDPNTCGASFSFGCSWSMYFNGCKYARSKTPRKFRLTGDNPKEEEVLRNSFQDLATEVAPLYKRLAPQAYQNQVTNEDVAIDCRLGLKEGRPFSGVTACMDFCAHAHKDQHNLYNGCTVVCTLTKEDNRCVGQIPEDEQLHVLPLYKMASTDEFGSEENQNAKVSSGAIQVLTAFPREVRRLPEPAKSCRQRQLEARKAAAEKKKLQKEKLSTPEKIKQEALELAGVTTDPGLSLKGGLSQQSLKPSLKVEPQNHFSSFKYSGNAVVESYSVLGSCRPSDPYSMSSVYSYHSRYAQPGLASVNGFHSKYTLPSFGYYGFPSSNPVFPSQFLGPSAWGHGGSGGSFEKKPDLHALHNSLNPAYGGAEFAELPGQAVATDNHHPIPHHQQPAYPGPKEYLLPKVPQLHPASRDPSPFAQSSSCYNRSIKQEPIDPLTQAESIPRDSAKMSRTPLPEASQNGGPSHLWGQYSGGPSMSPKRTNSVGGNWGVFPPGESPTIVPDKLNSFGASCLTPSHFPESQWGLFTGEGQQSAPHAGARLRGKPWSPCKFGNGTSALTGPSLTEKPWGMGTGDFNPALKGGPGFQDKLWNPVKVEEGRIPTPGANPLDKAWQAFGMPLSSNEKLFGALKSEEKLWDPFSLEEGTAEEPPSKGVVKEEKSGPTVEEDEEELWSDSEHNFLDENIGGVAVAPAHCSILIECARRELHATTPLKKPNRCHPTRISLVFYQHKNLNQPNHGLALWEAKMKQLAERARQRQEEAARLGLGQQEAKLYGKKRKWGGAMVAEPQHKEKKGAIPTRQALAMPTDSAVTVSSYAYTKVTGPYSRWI

B1: O-linked-β-N-acetylglucosamine-transferase (Ogt), endogenous, murine brain (enzyme, UniProt Q8CGY8 1-1046)
chain: MASSVGNVADSTEPTKRMLSFQGLAELAHREYQAGDFEAAERHCMQLWRQEPDNTGVLLLLSSIHFQCRRLDRSAHFSTLAIKQNPLLAEAYSNLGNVYKERGQLQEAIEHYRHALRLKPDFIDGYINLAAALVAAGDMEGAVQAYVSALQYNPDLYCVRSDLGNLLKALGRLEEAKACYLKAIETQPNFAVAWSNLGCVFNAQGEIWLAIHHFEKAVTLDPNFLDAYINLGNVLKEARIFDRAVAAYLRALSLSPNHAVVHGNLACVYYEQGLIDLAIDTYRRAIELQPHFPDAYCNLANALKEKGSVAEAEDCYNTALRLCPTHADSLNNLANIKREQGNIEEAVRLYRKALEVFPEFAAAHSNLASVLQQQGKLQEALMHYKEAIRISPTFADAYSNMGNTLKEMQDVQGALQCYTRAIQINPAFADAHSNLASIHKDSGNIPEAIASYRTALKLKPDFPDAYCNLAHCLQIVCDWTDYDERMKKLVSIVAEQLEKNRLPSVHPHHSMLYPLSHGFRKAIAERHGNLCLDKINVLHKPPYEHPKDLKLSDGRLRVGYVSSDFGNHPTSHLMQSIPGMHNPDKFEVFCYALSPDDGTNFRVKVMAEANHFIDLSQIPCNGKAADRIHQDGIHILVNMNGYTKGARNELFALRPAPIQAMWLGYPGTSGALFMDYIITDQETSPAEVAEQYSEKLAYMPHTFFIGDHANMFPHLKKKAVIDFKSNGHIYDNRIVLNGIDLKAFLDSLPDVKIVKMKCPDGGDNPDSSNTALNMPVIPMNTIAEAVIEMINRGQIQITINGFSISNGLATTQINNKAATGEEVPRTIIVTTRSQYGLPEDAIVYCNFNQLYKIDPSTLQMWANILKRVPNSVLWLLRFPAVGEPNIQQYAQNMGLPQNRIIFSPVAPKEEHVRRGQLADVCLDTPLCNGHTTGMDVLWAGTPMVTMPGETLASRVAASQLTCLGCLELIAKSRQEYEDIAVKLGTDLEYLKKIRGKVWKQRISSPLFNTKQYTMELERLYLQMWEHYAAGNKPDHMIKPVEVTESA
With B1 the binding was “binds”.
